Measured values as given in publication PMC11982200.
Results are given in words; binding and its absence hold for the method and conditions named. Binding seen in cells or lysates may run through a third protein. A yes stands for co-enrichment or nearness to the bait. Other partners may have been found.

Sequences of proteins named here, by UniProt entry; tags and fusion partners are left off. Residues count along the entry.
UniProt O94925, residues 55-669: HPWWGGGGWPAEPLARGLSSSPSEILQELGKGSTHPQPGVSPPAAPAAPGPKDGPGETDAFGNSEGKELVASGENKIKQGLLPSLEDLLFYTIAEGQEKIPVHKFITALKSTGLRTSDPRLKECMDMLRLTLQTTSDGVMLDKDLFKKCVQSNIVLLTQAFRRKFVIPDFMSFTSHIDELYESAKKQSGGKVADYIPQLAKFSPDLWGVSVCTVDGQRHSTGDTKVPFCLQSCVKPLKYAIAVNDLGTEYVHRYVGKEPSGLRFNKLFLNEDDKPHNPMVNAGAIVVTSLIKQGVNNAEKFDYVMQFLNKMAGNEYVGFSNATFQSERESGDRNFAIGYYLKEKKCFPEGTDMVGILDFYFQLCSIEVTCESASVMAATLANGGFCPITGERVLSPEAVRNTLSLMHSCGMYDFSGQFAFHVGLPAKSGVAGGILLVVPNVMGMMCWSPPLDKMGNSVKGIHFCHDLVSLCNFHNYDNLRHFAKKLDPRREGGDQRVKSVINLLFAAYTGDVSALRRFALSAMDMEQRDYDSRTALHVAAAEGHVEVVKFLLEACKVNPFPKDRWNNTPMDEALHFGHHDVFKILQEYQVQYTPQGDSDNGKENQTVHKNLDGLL

Biological target: KGA overexpressed in HepG2 cells (human) (UniProt O94925)
Experiment: affinity purification with mass spectrometry; immunoprecipitate from lysate of HepG2 cells overexpressing KGA; SDS-PAGE, silver staining, target lane excised, LC-MS/MS

B1: OGT, endogenous (enzyme, UniProt O15294 1-1046)
chain: MASSVGNVADSTEPTKRMLSFQGLAELAHREYQAGDFEAAERHCMQLWRQEPDNTGVLLLLSSIHFQCRRLDRSAHFSTLAIKQNPLLAEAYSNLGNVYKERGQLQEAIEHYRHALRLKPDFIDGYINLAAALVAAGDMEGAVQAYVSALQYNPDLYCVRSDLGNLLKALGRLEEAKACYLKAIETQPNFAVAWSNLGCVFNAQGEIWLAIHHFEKAVTLDPNFLDAYINLGNVLKEARIFDRAVAAYLRALSLSPNHAVVHGNLACVYYEQGLIDLAIDTYRRAIELQPHFPDAYCNLANALKEKGSVAEAEDCYNTALRLCPTHADSLNNLANIKREQGNIEEAVRLYRKALEVFPEFAAAHSNLASVLQQQGKLQEALMHYKEAIRISPTFADAYSNMGNTLKEMQDVQGALQCYTRAIQINPAFADAHSNLASIHKDSGNIPEAIASYRTALKLKPDFPDAYCNLAHCLQIVCDWTDYDERMKKLVSIVADQLEKNRLPSVHPHHSMLYPLSHGFRKAIAERHGNLCLDKINVLHKPPYEHPKDLKLSDGRLRVGYVSSDFGNHPTSHLMQSIPGMHNPDKFEVFCYALSPDDGTNFRVKVMAEANHFIDLSQIPCNGKAADRIHQDGIHILVNMNGYTKGARNELFALRPAPIQAMWLGYPGTSGALFMDYIITDQETSPAEVAEQYSEKLAYMPHTFFIGDHANMFPHLKKKAVIDFKSNGHIYDNRIVLNGIDLKAFLDSLPDVKIVKMKCPDGGDNADSSNTALNMPVIPMNTIAEAVIEMINRGQIQITINGFSISNGLATTQINNKAATGEEVPRTIIVTTRSQYGLPEDAIVYCNFNQLYKIDPSTLQMWANILKRVPNSVLWLLRFPAVGEPNIQQYAQNMGLPQNRIIFSPVAPKEEHVRRGQLADVCLDTPLCNGHTTGMDVLWAGTPMVTMPGETLASRVAASQLTCLGCLELIAKNRQEYEDIAVKLGTDLEYLKKVRGKVWKQRISSPLFNTKQYTMELERLYLQMWEHYAAGNKPDHMIKPVEVTESA
With B1 the binding was “binds”.
